Reference: PubChem BioAssay AID1508600 (Functional Genomics Laboratory (NCATS/FGL), 2020)
Hit rate of the full screen: of about 53,000 sequences, about 3,700 (7%) were called active.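 How the source made its calls: active means gene knockdowns whose robust z-score for IL-1 alpha signal is at least 2 or at most -2, so actives lie on both sides; inactive means the rest.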 This is one part of the list.

assay: Components of the Cytosolic LPS Sensing Pathway: Gene Identification via Genome-wide siRNA Screen; conditions: RAW264.7 macrophages, IL-1a HTRF, actives lie on both sides, screened at 100 nM (by protocol), cells primed 5 h with Pam3CSK4 first;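 further: robust z of the log signal after scaling to non-targeting control siRNA wells of the plate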
Outline: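 Mouse macrophage line RAW264.7 is transfected with siRNA (100 nM final), grown 48h, primed with TLR ligand Pam3CSK4 5 h and given intracellular LipidA 24 h. IL-1a in supernatant is read by HTRF and viability by luminescence.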

z-score, inactive:
CCAUCUGUCAUGACUACCUTT against Timm9 0.911
CCAACUAAGUGAAAUUCCATT against Aspn -1.26
CCCGGAUGAUGGAGAUAUUTT against Mnd1 -1
GCUGCUGGAGUGCAACUAATT against Tradd 0.391
GGGCUCAAGAAAUAAAUCATT against Aspa -0.591
GUCAUCUUCCUCCAGCACCTT against Olig2 -0.773
GGACAAAGAUUGAAGAAUGTT against Mib1 -0.0376
GGCUUUAGCAAUGGAAAAUTT against Ankhd1 -0.453
GCUUGAUCGAAGAAAGACATT against Tdrd3 0.709
GCAUUUAUGGAGUACUUACTT against Colgalt1 -1.82
GGAUUUUCUUUCAGAUCCGTT against P2ry12 0.762
CCCAGAGCAUGCCAUCAACTT against Orm3 -0.38
GCAAUGAAGAGUAACCGCUTT against Pak2 -0.0089
GGUUAUCGUUCUUGUCAAUTT against Ifih1 -1.16
UGACUUGUGAGAUUGAUCGTT against Fuom -1.07
GGAAUUCCGAAUAUUCCAGTT against Tsen2 1.51
GGCUUUUCAUUUGAUUAAGTT against Gpcpd1 -1.1
CGCAAGGCAUUCUCUACUUTT against Olfr1029 1.1
GGCCUUCAACUUGGUUAAGTT against U2af2 -0.339
GGUUUUGACCAGACCAUUATT against Lsm8 0.923
GGUGUGUGCAGGACUAAAUTT against Cacng3 0.955
UGUGCAUAGUCAAUCUCAGTT against Bag5 0.745
GCAAGGUAAGUUAGAUAUUTT against Armcx3 -0.318
GGCAAGAAACACAAAAAGATT against Zmat4 -1.08
GCGUGAAUACCUAAAUGUGTT against Rec8 0.517
GGUUGAUUUAGAGAGGGCCTT against Gprc5c -0.417
GCACCAUCAUAUGAUCACGTT against Cd83 0.573
CCCAUUUCACUUCAGUUUGTT against Osbp2 -0.253
GGUGAAGAGAUUGACGUGGTT against Mycl -1.34

2 entries picked at random from those above, as already listed:
z-score, inactive:
GCUGCUGGAGUGCAACUAATT against Tradd 0.391
GCUUGAUCGAAGAAAGACATT against Tdrd3 0.709

Following part.

z-score, active:
GCCACUACCGAUUUUCCCUTT against Lctl -2.29
